Several values for one entry are separate records, joined by “and”; a condition that tells them apart may be missing. Identical values can stand only once.
What was measured:
Test in all cases: High-throughput cell-surface marker screening (LEGENDScreen), %PE+
Assay type in all cases: cell-based, human
Conditions in all cases: percentage of cells bound to the PE-conjugated antibody (LEGENDScreen)
[1] = tested on: D3.5 SOX17-GFP+ PGCs
[2] = tested on: undifferentiated hPSC (D0)
[3] = tested on: D3.5 SOX17-GFP- non-PGCs

Q: With CD284 as the substance, how does the “% PE+ in PGCs” value [1] read?
A: 0%

Q: And the “% PE+ in H1 UD” value [2]?
A: 0.9%

Q: What about the “% PE+ in non-PGCs” value [3] of the same substance?
A: 0.0006588%

Q: How did the “% PE+ in PGCs” value [1] turn out when CD217 was run?
A: 0%

Q: And the “% PE+ in H1 UD” value [2]?
A: 85.3%

Q: What about the “% PE+ in non-PGCs” value [3] of the same substance?
A: 0.002933%

Q: For CD44, which “% PE+ in PGCs” value [1] is on record?
A: 0%

Q: What about the “% PE+ in H1 UD” value [2] of the same substance?
A: 79.7%

Q: What about the “% PE+ in non-PGCs” value [3] of the same substance?
A: 0%

Q: For CD154, which “% PE+ in PGCs” value [1] is on record?
A: 0%

Q: What about the “% PE+ in H1 UD” value [2] of the same substance?
A: 0.16%

Q: What about the “% PE+ in non-PGCs” value [3] of the same substance?
A: 0.0001621%

Q: What does the source list for CD115?
A: % PE+ in PGCs [1]: 0%; % PE+ in H1 UD [2]: 0.66%; % PE+ in non-PGCs [3]: 0.001517%

Q: CD61 was tested. Which “% PE+ in PGCs” value [1] did it give?
A: 0.9719%

Q: And the “% PE+ in H1 UD” value [2]?
A: 0.043%

Q: What about the “% PE+ in non-PGCs” value [3] of the same substance?
A: 0.927%

Q: CD51 was tested. Which “% PE+ in PGCs” value [1] did it give?
A: 0.9743%

Q: And the “% PE+ in H1 UD” value [2]?
A: 99.8%

Q: What about the “% PE+ in non-PGCs” value [3] of the same substance?
A: 0.9709%

Q: erbB3 was tested. Which “% PE+ in PGCs” value [1] did it give?
A: 0.5041%

Q: What about the “% PE+ in H1 UD” value [2] of the same substance?
A: 99.3%

Q: What about the “% PE+ in non-PGCs” value [3] of the same substance?
A: 0.1277%

Q: With Notch 1 as the substance, how does the “% PE+ in PGCs” value [1] read?
A: 0.003419%

Q: And the “% PE+ in H1 UD” value [2]?
A: 97.2%

Q: And the “% PE+ in non-PGCs” value [3]?
A: 0.0004548%

Q: Which “% PE+ in PGCs” value [1] does the source give for CD49b here?
A: 0%

Q: What about the “% PE+ in H1 UD” value [2] of the same substance?
A: 99.8%

Q: What about the “% PE+ in non-PGCs” value [3] of the same substance?
A: 0.0004254%

Q: CD49f was tested. Which “% PE+ in PGCs” value [1] did it give?
A: 0.9406%

Q: And the “% PE+ in H1 UD” value [2]?
A: 99.6%

Q: What about the “% PE+ in non-PGCs” value [3] of the same substance?
A: 0.3889%

Q: How did the “% PE+ in PGCs” value [1] turn out when Notch 4 was run?
A: 0%

Q: What about the “% PE+ in H1 UD” value [2] of the same substance?
A: 0.51%

Q: And the “% PE+ in non-PGCs” value [3]?
A: 6.498E-05%

Q: What does the source list for CD63?
A: % PE+ in PGCs [1]: 0.007308%; % PE+ in H1 UD [2]: 99.5%; % PE+ in non-PGCs [3]: 0.003238%

Q: How did the “% PE+ in PGCs” value [1] turn out when DLL4 was run?
A: 0%

Q: And the “% PE+ in H1 UD” value [2]?
A: 0.1%

Q: And the “% PE+ in non-PGCs” value [3]?
A: 0%

Q: For CD81, which “% PE+ in H1 UD” value [2] is on record?
A: 99.5%

Q: With CD146 as the substance, how does the “% PE+ in PGCs” value [1] read?
A: 0.9288%

Q: What about the “% PE+ in H1 UD” value [2] of the same substance?
A: 91.7%

Q: What about the “% PE+ in non-PGCs” value [3] of the same substance?
A: 0.6474%

Q: Which “% PE+ in PGCs” value [1] does the source give for CD135 here?
A: 0%

Q: And the “% PE+ in H1 UD” value [2]?
A: 0.26%

Q: What about the “% PE+ in non-PGCs” value [3] of the same substance?
A: 0.0001421%

Q: Which “% PE+ in PGCs” value [1] does the source give for CD22 here?
A: 0%

Q: And the “% PE+ in H1 UD” value [2]?
A: 0.094%

Q: And the “% PE+ in non-PGCs” value [3]?
A: 6.835E-05%

Q: CD160 was tested. Which “% PE+ in PGCs” value [1] did it give?
A: 0.003072%

Q: And the “% PE+ in H1 UD” value [2]?
A: 1.32%

Q: What about the “% PE+ in non-PGCs” value [3] of the same substance?
A: 0.005056%

Q: How did the “% PE+ in PGCs” value [1] turn out when Siglec-8 was run?
A: 0%

Q: And the “% PE+ in H1 UD” value [2]?
A: 0.16%

Q: And the “% PE+ in non-PGCs” value [3]?
A: 4.641E-05%

Q: For CD207, which “% PE+ in PGCs” value [1] is on record?
A: 0%

Q: And the “% PE+ in H1 UD” value [2]?
A: 0.042%

Q: And the “% PE+ in non-PGCs” value [3]?
A: 0.0002535%

Q: CD47 was tested. Which “% PE+ in PGCs” value [1] did it give?
A: 0.09756%

Q: What about the “% PE+ in H1 UD” value [2] of the same substance?
A: 99.6%

Q: What about the “% PE+ in non-PGCs” value [3] of the same substance?
A: 0.2702%

Q: How did the “% PE+ in PGCs” value [1] turn out when C3aR was run?
A: 0%

Q: And the “% PE+ in H1 UD” value [2]?
A: 0.22%

Q: What about the “% PE+ in non-PGCs” value [3] of the same substance?
A: 0.000202%

Q: For CD31, which “% PE+ in PGCs” value [1] is on record?
A: 0.02027%

Q: What about the “% PE+ in H1 UD” value [2] of the same substance?
A: 0.36%

Q: What about the “% PE+ in non-PGCs” value [3] of the same substance?
A: 0.0002732%

Q: How did the “% PE+ in PGCs” value [1] turn out when CD169 was run?
A: 0%

Q: And the “% PE+ in H1 UD” value [2]?
A: 0.21%

Q: And the “% PE+ in non-PGCs” value [3]?
A: 0.000233%

Q: Which “% PE+ in PGCs” value [1] does the source give for CD140a here?
A: 0.05744%

Q: And the “% PE+ in H1 UD” value [2]?
A: 0.12%

Q: What about the “% PE+ in non-PGCs” value [3] of the same substance?
A: 0.3597%

Q: How did the “% PE+ in PGCs” value [1] turn out when CD48 was run?
A: 0%

Q: And the “% PE+ in H1 UD” value [2]?
A: 2.17%

Q: And the “% PE+ in non-PGCs” value [3]?
A: 0.0001518%

Q: Which results are given for CD142?
A: % PE+ in PGCs [1]: 0.2296%; % PE+ in H1 UD [2]: 99.6%; % PE+ in non-PGCs [3]: 0.1744%

Q: What does the source list for CD29?
A: % PE+ in PGCs [1]: 0.9912%; % PE+ in H1 UD [2]: 99.8%; % PE+ in non-PGCs [3]: 0.9988%

Q: How did the “% PE+ in PGCs” value [1] turn out when CD116 was run?
A: 0.002924%

Q: And the “% PE+ in H1 UD” value [2]?
A: 0.9%

Q: What about the “% PE+ in non-PGCs” value [3] of the same substance?
A: 0.03232%

Q: For Siglec-10, which “% PE+ in PGCs” value [1] is on record?
A: 0%

Q: And the “% PE+ in H1 UD” value [2]?
A: 0.35%

Q: And the “% PE+ in non-PGCs” value [3]?
A: 0.01975%

Q: Which “% PE+ in PGCs” value [1] does the source give for Notch 2 here?
A: 0.006504%

Q: What about the “% PE+ in H1 UD” value [2] of the same substance?
A: 88.5%

Q: And the “% PE+ in non-PGCs” value [3]?
A: 0.06203%

Q: Which results are given for CD107b?
A: % PE+ in PGCs [1]: 0.04037%; % PE+ in H1 UD [2]: 18.6%; % PE+ in non-PGCs [3]: 0.07137%

Q: How did the “% PE+ in PGCs” value [1] turn out when CD370 was run?
A: 0%

Q: What about the “% PE+ in H1 UD” value [2] of the same substance?
A: 0.084%

Q: What about the “% PE+ in non-PGCs” value [3] of the same substance?
A: 0.0001925%

Q: What does the source list for CD109?
A: % PE+ in PGCs [1]: 0.1197%; % PE+ in H1 UD [2]: 44.2%; % PE+ in non-PGCs [3]: 0.001618%

Q: What does the source list for CD360?
A: % PE+ in PGCs [1]: 0%; % PE+ in H1 UD [2]: 8.46% and 4.55%; % PE+ in non-PGCs [3]: 0.001618% and 0.0001418%

Q: Which “% PE+ in PGCs” value [1] does the source give for CD80 here?
A: 0%

Q: What about the “% PE+ in H1 UD” value [2] of the same substance?
A: 0.064%

Q: And the “% PE+ in non-PGCs” value [3]?
A: 0.0005068%

Q: With CXCR7 as the substance, how does the “% PE+ in PGCs” value [1] read?
A: 0.007053%

Q: And the “% PE+ in H1 UD” value [2]?
A: 1.02%

Q: And the “% PE+ in non-PGCs” value [3]?
A: 0.01142%

Q: For CD107a, which “% PE+ in PGCs” value [1] is on record?
A: 0.7059%

Q: What about the “% PE+ in H1 UD” value [2] of the same substance?
A: 99.7%

Q: What about the “% PE+ in non-PGCs” value [3] of the same substance?
A: 0.5091%

Q: For CD100, which “% PE+ in PGCs” value [1] is on record?
A: 0.003862%

Q: What about the “% PE+ in H1 UD” value [2] of the same substance?
A: 99.3%

Q: What about the “% PE+ in non-PGCs” value [3] of the same substance?
A: 0.001114%

Q: With CD35 as the substance, how does the “% PE+ in PGCs” value [1] read?
A: 0%

Q: And the “% PE+ in H1 UD” value [2]?
A: 3.22%

Q: And the “% PE+ in non-PGCs” value [3]?
A: 0.0007484%

Q: CD268 was tested. Which “% PE+ in PGCs” value [1] did it give?
A: 0.00504%

Q: What about the “% PE+ in H1 UD” value [2] of the same substance?
A: 11.6%

Q: What about the “% PE+ in non-PGCs” value [3] of the same substance?
A: 0.005966%

Q: Which “% PE+ in H1 UD” value [2] does the source give for CD41 here?
A: 0.064%

Q: For CD19, which “% PE+ in PGCs” value [1] is on record?
A: 0%

Q: What about the “% PE+ in H1 UD” value [2] of the same substance?
A: 0.062%

Q: What about the “% PE+ in non-PGCs” value [3] of the same substance?
A: 2.761E-05%

Q: Which results are given for CD195?
A: % PE+ in PGCs [1]: 0.01384%; % PE+ in H1 UD [2]: 0.041%; % PE+ in non-PGCs [3]: 0.02834%

From patent US20230242871A1, “GENERATION OF PRIMORDIAL GERM CELLS AND METHODS OF USING THE SAME” (The Board of Trustees of the Leland Stanfor Junior …, priority 2020, published 2023)
